Results are given in words; binding and its absence hold for the method and conditions named. Binding seen in cells or lysates may run through a third protein. Where a sequence is shown, tags or fusion partners need not be part of it.
Molecular target: glutathione-S-transferase (GST)-tagged EspO1-2 (EHEC O157:H7 Sakai)
Assay: pull-down; GST-fused protein on glutathione-Sepharose 4B beads mixed with a cleared extract of E. coli MC1061 expressing the Flag-tagged effector; 2 h at 4°C; washed with RIPA buffer (25 mM Tris-HCl, 150 mM NaCl, 1% Nonidet P-40, pH 7.5); immunoblot with anti-Flag; only the target purified

B1: Flag-tagged EspG (protein, UniProt Q7DB50 1-381)
chain: MINGLNNDSASLVLDAAMKVNSGFKKSWDEMSCAEKLFKVLSFGLWNPTYSRSERQSFQELLTVLEPVYPLPNELGRVSARFSDGSSLRISVTNSELVEAEIRTANNEKITVLLESNEQNRLLQSLPIDRHMPYIQVHRALSEMDLTDTTSMRNLLGFTSKLSTTLIPHNAQTDPLSGPTPFSSIFMDTCRGLGNAKLSLNGVDIPANAQKLLRDALGLKDTHSSPTRNVIDHGISRHDAEQIARESSGSDKQKAEVVEFLCHPEAATAICSAFYQSFNVPALTLTHERISKASEYNAERSLDTPNACINISISQSSDGNIYVTSHTGVLIMAPEDRPNEMGMLTNRTSYEVPQGVKCIIDEMVSALQPRYAASETYLQNT
B1 was tested, and the binding was “no binding”.
